Results are given in words; binding and its absence hold for the method and conditions named. Some binding calls cover weakened binding; strength is not graded here.
Target: C. elegans Hsp90 (HSP-90) (C. elegans) (UniProt Q18688)
Test: AUC; sedimentation velocity with fluorescence detection; 600 nM ATTO 488-labelled GRLBDm, 3 μM unlabelled chaperones and cofactors, 2 mM ATPγS; 20 mM HEPES, 20 mM KCl, 5 mM MgCl2, 50 μM dexamethasone, pH 7.5; 42,000 rpm, 20 °C; both purified

binding: binds weakly
B1: Cep23/DAF-41, nematode p23 homolog (protein, UniProt Q23280 1-175)
chain: MAKQPTVLWAQRESLVYLTIEVDEAKIEELKGEGNKLHFQGSSKTDKYEATLEFFDEIDPASVKHTGSSTRVVEITVQKKTPAWWPRLLQNKGKVHWLKVDFGKWKDEDEDDEAEDAGAGIGGGMANGFDLNQYMSQMGGAGGADFGGLEDDEEDDDMPDLEDNEEEEGKNGTRA
